The values that follow come from article PMC8770127.

By UniProt entry, the sequences of proteins in these tests, tags left out.
UniProt P10275: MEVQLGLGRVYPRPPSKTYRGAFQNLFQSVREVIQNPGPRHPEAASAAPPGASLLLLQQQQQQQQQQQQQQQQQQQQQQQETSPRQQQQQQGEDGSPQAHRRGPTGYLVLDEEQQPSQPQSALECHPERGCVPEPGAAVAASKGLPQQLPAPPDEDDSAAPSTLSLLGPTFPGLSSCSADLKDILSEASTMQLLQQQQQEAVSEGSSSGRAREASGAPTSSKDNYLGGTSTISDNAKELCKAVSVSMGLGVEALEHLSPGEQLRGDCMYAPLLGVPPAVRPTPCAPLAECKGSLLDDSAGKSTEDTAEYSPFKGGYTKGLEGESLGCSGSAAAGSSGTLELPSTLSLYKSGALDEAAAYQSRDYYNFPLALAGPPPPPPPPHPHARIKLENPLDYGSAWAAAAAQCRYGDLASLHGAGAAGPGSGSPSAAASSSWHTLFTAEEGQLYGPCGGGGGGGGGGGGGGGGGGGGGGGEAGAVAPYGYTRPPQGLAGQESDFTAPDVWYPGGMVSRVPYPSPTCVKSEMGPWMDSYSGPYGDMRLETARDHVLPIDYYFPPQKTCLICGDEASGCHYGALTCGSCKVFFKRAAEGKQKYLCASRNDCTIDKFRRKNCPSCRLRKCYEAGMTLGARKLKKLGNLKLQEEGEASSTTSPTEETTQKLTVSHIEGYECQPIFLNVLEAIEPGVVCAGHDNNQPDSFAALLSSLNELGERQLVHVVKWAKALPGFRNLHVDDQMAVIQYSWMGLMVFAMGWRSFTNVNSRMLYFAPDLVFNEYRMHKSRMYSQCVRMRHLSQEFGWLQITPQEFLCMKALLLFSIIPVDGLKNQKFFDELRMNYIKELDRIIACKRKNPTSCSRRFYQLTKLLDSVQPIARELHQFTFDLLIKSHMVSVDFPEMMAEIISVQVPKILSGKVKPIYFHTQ
UniProt Q92922: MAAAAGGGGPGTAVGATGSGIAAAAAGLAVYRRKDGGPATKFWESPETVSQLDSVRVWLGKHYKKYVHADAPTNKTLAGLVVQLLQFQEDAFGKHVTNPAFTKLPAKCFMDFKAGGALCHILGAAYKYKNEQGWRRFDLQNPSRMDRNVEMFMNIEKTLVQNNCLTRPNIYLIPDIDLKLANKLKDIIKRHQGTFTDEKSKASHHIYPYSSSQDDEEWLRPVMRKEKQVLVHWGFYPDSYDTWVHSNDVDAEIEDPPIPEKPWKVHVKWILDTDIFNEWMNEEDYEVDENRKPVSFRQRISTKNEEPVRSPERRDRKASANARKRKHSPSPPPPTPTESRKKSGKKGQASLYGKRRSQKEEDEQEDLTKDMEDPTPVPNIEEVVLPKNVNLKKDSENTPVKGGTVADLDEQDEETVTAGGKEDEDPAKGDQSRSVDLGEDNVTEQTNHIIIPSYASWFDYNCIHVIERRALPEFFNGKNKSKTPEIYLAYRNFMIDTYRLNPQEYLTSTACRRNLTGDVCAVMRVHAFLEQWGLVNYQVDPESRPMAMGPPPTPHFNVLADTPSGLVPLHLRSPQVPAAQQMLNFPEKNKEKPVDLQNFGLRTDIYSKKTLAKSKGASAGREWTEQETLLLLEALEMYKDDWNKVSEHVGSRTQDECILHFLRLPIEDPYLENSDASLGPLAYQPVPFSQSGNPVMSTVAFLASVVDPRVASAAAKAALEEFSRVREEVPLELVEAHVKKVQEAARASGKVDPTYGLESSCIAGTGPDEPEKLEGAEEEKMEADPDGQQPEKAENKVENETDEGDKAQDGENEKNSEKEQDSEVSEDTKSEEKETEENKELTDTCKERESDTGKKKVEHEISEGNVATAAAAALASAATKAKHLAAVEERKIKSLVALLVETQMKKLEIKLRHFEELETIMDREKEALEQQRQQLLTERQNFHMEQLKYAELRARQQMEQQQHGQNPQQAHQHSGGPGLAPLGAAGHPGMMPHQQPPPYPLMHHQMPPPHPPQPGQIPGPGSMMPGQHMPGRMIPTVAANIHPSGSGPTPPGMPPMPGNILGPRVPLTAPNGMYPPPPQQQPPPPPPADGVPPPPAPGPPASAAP

Test [1] has as its target Androgen receptor (human (endogenous in LNCaP and VCaP)) (UniProt P10275). Kind of test: co-IP; reciprocal nuclear co-IP with AR, FOXA1, ERG or SMARCC1 antibodies, 600 ug nuclear extract of VCaP and LNCaP cells after DHT stimulation (10 nM, 3h), immunoblot. On the technique in general: In western blotting, separated proteins are transferred to a membrane and probed.
Test [2] addresses T1, Forkhead box A1 (human (endogenous in LNCaP and VCaP)) (UniProt P55317).
T1 sequence: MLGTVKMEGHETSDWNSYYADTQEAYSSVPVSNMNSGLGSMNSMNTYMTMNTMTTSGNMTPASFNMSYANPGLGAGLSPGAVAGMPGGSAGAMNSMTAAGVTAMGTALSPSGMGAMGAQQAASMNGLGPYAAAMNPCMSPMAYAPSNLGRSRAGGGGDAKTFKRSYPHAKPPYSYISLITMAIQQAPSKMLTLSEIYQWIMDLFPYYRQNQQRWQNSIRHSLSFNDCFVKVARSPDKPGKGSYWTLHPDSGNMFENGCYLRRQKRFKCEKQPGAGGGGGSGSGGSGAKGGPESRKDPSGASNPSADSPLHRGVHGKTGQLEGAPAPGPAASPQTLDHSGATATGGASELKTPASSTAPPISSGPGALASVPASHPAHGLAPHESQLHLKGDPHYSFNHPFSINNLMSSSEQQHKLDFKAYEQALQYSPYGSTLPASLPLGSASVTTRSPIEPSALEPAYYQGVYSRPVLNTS
Described as above.

No constants are given. Whether binding was seen depends on the method and setting. Binding seen in cells or lysates may run through a third protein. Some results given as binding are weak or reduced against the parent protein; the word gives no strength.

With SMARCC1 (from UniProt Q92922 1-1105), the binding result in test [1] and in test [2] was “binds” in each case.
